No constants are given. Whether binding was seen depends on the method and setting. Some entries that bind do so weakly or less than the wild type. Sequences can lack the tags named with a protein.
Target: T1, HPV16 E1 protein (E1-Myc) (HPV16 (human papillomavirus type 16)) (UniProt P03114)
T1 sequence: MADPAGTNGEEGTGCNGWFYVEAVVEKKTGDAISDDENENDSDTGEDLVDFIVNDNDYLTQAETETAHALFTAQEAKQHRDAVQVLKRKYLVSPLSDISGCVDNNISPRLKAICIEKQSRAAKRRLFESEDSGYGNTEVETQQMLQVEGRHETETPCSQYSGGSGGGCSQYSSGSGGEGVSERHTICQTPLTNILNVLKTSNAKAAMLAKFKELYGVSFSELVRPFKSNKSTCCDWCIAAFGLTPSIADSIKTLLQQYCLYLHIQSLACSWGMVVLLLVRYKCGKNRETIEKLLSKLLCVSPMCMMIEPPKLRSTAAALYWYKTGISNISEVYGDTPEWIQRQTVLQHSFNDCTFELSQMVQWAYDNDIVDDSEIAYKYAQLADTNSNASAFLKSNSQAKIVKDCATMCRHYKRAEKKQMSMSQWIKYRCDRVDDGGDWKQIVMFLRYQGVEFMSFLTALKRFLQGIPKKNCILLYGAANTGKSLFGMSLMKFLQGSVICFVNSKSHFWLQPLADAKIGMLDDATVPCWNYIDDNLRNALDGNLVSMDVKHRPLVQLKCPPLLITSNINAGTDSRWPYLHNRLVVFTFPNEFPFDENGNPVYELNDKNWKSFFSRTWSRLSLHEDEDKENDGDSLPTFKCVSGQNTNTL
Test: co-IP; purified E1-Myc and HA-tagged E2 (or GFP-HA) mixed at 1:1 molar ratio in 0.5% Triton X-100 in PBS, 4 °C, 2 h; precipitated with MYC antibody and Protein A/G beads; washed with 20 mM Tris-HCl, 300 mM NaCl, 0.1 mM EDTA, pH 8.0; Western blot with anti-Myc or anti-HA; both purified

Chains of the proteins cited; added tags and fusions are not shown. Residues count along the entry.
UniProt P03120, residues 1-245: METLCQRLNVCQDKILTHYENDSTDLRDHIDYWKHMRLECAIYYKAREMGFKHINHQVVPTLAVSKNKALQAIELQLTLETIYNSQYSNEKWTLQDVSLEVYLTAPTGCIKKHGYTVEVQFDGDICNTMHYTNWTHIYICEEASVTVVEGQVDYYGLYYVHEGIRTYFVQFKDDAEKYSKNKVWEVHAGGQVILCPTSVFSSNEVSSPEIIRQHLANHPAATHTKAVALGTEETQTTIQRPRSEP

HPV16 E2 N-terminal truncation (residues 1-245) (from UniProt P03120 1-245) (domain or fragment)
binding: binds

From article PMC13284460, “HPV16 E2 protein possesses intrinsic helicase activity and sterically hinders E1 function through direct interaction”
